Some results were stated once for a whole list of compounds, not compound by compound.
Columns and labels:
Alternaria brassicae = assay: In vivo preventive test on Alternaria brassicae (leaf spot on radish); conditions: 100 ppm of active ingredient; radish plants, preventive spray, evaluated 6 days after inoculation
Botrytis cinerea = assay: In vivo preventive test on Botrytis cinerea (grey mould); conditions: 100 ppm of active ingredient; gherkin plants, preventive spray, evaluated 4 to 5 days after inoculation
Puccinia recondita = assay: In vivo preventive test on Puccinia recondita (brown rust on wheat); conditions: 100 ppm of active ingredient; wheat plants, preventive spray, evaluated 11 days after inoculation
Procedure: (§1) Example: In Vivo Preventive Test on Puccinia recondita (Brown Rust on Wheat) [table] The active ingredients are made soluble and homogenized in a mixture of Dimethyl sulfoxide/Acetone/Tween® 80 and then diluted in water to the desired concentration. The young plants of wheat are treated by spraying the active ingredient prepared as described above. Control plants are treated only with an aqueous solution of Acetone/Dimethyl sulfoxide/Tween® 80. After 24 hours, the plants are contaminated by spraying the leaves with an aqueous suspension of Puccinia recondita spores. The contaminated wheat plants are incubated for 24 hours at 20° C. and at 100% relative humidity and then for 10 days at 20° C. and at 70-80% relative humidity. The test is evaluated 11 days after the inoculation. 0% means an efficacy which corresponds to that of the control plants while an efficacy of 100% means that no disease is observed.

Pyrenophora teres = assay: In vivo preventive test on Pyrenophora teres (net blotch on barley); conditions: 100 ppm of active ingredient; barley plants, preventive spray, evaluated 14 days after inoculation
Septoria tritici = assay: In vivo preventive test on Septoria tritici (leaf spot on wheat); conditions: 100 ppm of active ingredient; wheat plants, preventive spray, evaluated 24 days after inoculation
Sphaerotheca fuliginea = assay: In vivo preventive test on Sphaerotheca fuliginea (powdery mildew on cucurbits); conditions: 100 ppm of active ingredient; gherkin plants, preventive spray, evaluated 15 days after inoculation
Uromyces appendiculatus = assay: In vivo preventive test on Uromyces appendiculatus (bean rust); conditions: 100 ppm of active ingredient; bean plants, preventive spray, evaluated 11 days after inoculation
Procedure: as §1, with “Uromyces appendiculatus (Bean Rust)” for “Puccinia recondita (Brown Rust on Wheat)”, “bean” for “wheat”, “Uromyces appendiculatus” for “Puccinia recondita”

Phakopsora pachyrhizi = assay: In vivo preventive test on Phakopsora test (soybeans); conditions: 10 ppm of active ingredient; soybean plants, preventive spray, evaluated 7 days after inoculation

Measured: efficacy

CON=Cc1c(F)cc(-c2ccccc2NC(=O)c2cccnc2C(F)F)cc1F [Example I-49]
at least 70%: all assays above

From patent US20190023658A1, “SUBSTITUTED 2-DIFLUOROMETHYL-NICOTIN(THIO)CARBOXANILIDE DERIVATIVES AND THEIR USE AS FUNGICIDES” (Bayer CropScience Aktiengesellschaft, priority 2015, published 2019)
